# Primary screen of a compound library

Protein sequences, listed by entry. Tags and fused reporters are not part of them. Residues count along the entry.
UniProt A4I591, 1-473: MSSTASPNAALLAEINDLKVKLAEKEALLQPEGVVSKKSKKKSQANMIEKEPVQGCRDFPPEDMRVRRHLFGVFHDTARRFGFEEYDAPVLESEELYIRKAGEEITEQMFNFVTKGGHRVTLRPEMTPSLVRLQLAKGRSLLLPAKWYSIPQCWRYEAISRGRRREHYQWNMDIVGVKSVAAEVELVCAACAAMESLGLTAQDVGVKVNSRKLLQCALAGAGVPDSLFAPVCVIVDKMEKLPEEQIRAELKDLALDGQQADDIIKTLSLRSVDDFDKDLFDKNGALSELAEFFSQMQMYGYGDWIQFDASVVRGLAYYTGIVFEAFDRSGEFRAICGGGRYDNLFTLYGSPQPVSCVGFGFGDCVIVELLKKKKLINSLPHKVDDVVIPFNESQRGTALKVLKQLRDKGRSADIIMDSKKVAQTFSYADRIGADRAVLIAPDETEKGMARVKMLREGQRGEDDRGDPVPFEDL
UniProt P9WNZ1, whole entry: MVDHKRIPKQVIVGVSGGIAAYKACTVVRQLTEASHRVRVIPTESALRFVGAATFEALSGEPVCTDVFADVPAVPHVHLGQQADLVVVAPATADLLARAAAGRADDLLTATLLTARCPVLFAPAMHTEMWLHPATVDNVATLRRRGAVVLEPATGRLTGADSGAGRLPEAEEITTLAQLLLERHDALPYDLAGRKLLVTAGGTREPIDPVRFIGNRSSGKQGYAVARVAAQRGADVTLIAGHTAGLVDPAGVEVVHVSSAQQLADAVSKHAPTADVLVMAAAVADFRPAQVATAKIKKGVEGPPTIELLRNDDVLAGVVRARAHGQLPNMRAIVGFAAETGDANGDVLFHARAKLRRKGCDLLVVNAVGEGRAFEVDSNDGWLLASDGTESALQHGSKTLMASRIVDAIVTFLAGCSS
UniProt Q8IDJ8, 1-583: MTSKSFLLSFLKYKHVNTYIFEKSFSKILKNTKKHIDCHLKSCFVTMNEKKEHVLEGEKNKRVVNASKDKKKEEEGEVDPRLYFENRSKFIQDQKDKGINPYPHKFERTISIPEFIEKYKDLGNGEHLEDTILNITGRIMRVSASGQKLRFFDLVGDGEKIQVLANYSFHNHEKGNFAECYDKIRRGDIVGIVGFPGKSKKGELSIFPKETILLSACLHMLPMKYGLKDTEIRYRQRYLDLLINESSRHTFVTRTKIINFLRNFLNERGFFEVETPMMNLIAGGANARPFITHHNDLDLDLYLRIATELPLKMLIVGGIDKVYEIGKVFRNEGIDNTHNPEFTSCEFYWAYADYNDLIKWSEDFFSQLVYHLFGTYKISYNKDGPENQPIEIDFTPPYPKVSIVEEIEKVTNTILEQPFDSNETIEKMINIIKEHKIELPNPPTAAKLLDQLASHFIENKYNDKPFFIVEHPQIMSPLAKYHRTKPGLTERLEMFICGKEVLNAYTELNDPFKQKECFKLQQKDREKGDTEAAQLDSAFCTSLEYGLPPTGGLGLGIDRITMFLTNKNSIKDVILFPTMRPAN
UniProt P9WFT3, whole entry: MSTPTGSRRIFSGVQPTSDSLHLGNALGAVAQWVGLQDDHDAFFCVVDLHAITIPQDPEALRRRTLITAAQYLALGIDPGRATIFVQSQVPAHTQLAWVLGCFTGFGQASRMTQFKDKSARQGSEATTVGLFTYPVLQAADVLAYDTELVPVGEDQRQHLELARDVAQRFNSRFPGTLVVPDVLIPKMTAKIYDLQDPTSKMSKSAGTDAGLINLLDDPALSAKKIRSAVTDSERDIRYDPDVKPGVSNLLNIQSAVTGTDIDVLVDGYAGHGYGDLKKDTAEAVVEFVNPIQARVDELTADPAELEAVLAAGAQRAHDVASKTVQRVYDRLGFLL

Source: ChEMBL document CHEMBL3988442, “University of Dundee, Small-Polar-MMV Screening Library” (2021).

Each number is a percent effect as filed.
The controls that fix the scale are not given in the record; negative values are as filed.
The compounds are a random part of those screened.

A: 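Enzyme assay of histidyl-tRNA synthetase; the read-out is not stated. Target: Histidine-tRNA ligase, Leishmania infantum (UniProt A4I591). Tested at 30 µM. Direction is inferred from retests: higher values go with stronger inhibition. The assay is labelled LdHisRS but filed under L. infantum. Size under these conditions: about 69,000 compounds, about 410 of them at 50% or above in at least one test.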
B: 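Coenzyme A biosynthesis protein CoaBC, Mycobacterium tuberculosis (UniProt P9WNZ1). Enzyme assay of CoaBC with a phosphate dye (Biomol Green) read at 650 nm. Concentration: 30 µM. Higher reads as stronger inhibition, judged from the few compounds that gave an IC50. Most strong results did not repeat in a second test. Size under these conditions: about 67,000 compounds, about 40 of them at 50% or above in at least one test.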
C: 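Lysine-tRNA ligase, Plasmodium falciparum 3D7 (UniProt Q8IDJ8). Enzyme assay of the cytosolic lysyl-tRNA synthetase in 384-well plates, read by luminescence. Compounds at 30 µM. Higher reads as stronger inhibition, judged from the few compounds that gave an IC50. Size under these conditions: about 69,000 compounds, about 49 of them at 50% or above in at least one test.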
D: 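Tryptophan-tRNA ligase, Mycobacterium tuberculosis (UniProt P9WFT3). Enzyme assay of tryptophanyl-tRNA synthetase; the read-out is not stated. Tested at 10 µM. Direction is not recorded; retested compounds ran higher, which suggests that high means inhibition. About 65,000 compounds were tested under these conditions; 0.098% (about 64) showed 50% or more at least once.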

Compound: CCn1ccnc1CN1CCC(CCC(=O)Nc2ccccc2Cl)CC1
A: 5.714
B: -19.74
C: 4.313
D: 3.592

Compound: CC(c1ccccc1F)N1CCN(C(=O)Cc2ccncc2)CC1 (centres undefined)
A: 1.333
B: -1.24
C: 4.652
D: -6.101

Compound: CN1CC(=O)N(C2CCC2)Cc2c(NC3CCNCC3)ncnc21
A: 6.897
B: -6.579
C: 2.311
D: 2.334

Compound: Cc1cc(C(=O)N2C[C@H]3CC[C@@H]2CN(C)C3)ccc1Cl
A: 7.143
B: 0
C: -4.204
D: 0.3734

Compound: CCc1[nH]nc(NC(=O)c2ccc(Cl)cn2)c1C
A: 9.91
B: 3.891
C: 0.9838
D: -4.938

Compound: O=S(=O)(NCc1ccccc1)N1CCCN(c2ccncc2)CC1
A: 25.3
B: 3.165
C: 2.859
D: -0.8158

Compound: COCCN1CCC2(CC1)C(=O)Nc1ccc(C(=O)NC(C)C)cc12
A: 9.722
B: 11.85
C: 1.852
D: -3.176

Compound: COCC1CN(C(=O)COc2ccccc2)Cc2cn(C)nc21 (centres undefined)
A: 6.796
B: 1.394
C: 3.685
D: -1.213

Compound: CC1Oc2ccc(S(=O)(=O)NCCCn3ccnc3)cc2NC1=O (centres undefined)
A: 7.692
B: -1.408
C: 4.664
D: -5.121

Compound: COc1cccc2cc(CNC(=O)N3CCC(N4CCCC4)C3)oc12 (centres undefined)
A: 10.17
B: -0.2625
C: 0.2762
D: -9.627

Compound: Cc1csc(C2CCCN(C(=O)c3c(C)nn4cccnc34)C2)n1 (centres undefined)
A: 8.929
B: -1.136
C: -0.3234
D: -6.1

Compound: COc1ccc(F)cc1-n1cnc(CCNC(C)=O)c1
A: 17.74
B: -1.599
C: -0.196
D: -2.484

Compound: CCC(=O)NCC(=O)NCC1CCN(c2cc(Cl)ccc2C)C1 (centres undefined)
A: 17.59
B: 5.263
C: -0.03346
D: -2.406

Compound: CCOc1ccnc(N2CCN(C(=O)c3cccc(C#N)c3)CC2)n1
A: -4.545
B: 7.846
C: -1.58
D: 3.216

Compound: CN(C)CCCn1ccnc1C1CCCN(c2ncc(Cl)cc2F)C1 (centres undefined)
A: 9.836
B: -0.3589
C: 2.948
D: 1.464

Compound: Cc1ccc(O)c(C(=O)N2C[C@@H](C(=O)O)[C@H](c3ccccc3)C2)c1
A: 9.677
B: 0.1233
C: -0.4132
D: -0.3003

Compound: Cc1ccc(C(=O)N2CCC(c3nccn3Cc3ccncc3)CC2)s1
A: 15.2
B: 8.806
C: 1.091
D: 1.957

Compound: CN1CCC(NC(=O)[C@H]2CC[C@@H]3[C@@H](CCN3c3ncccn3)O2)CC1
A: 16
B: -23.98
C: 1.703
D: -7.502

Compound: CCOc1ccc(NC2CCN(C3CC3)C2=O)cn1 (centres undefined)
A: 38.71
B: -1.599
C: 11.81
D: 1.49

Compound: CCN1CC(COc2ccccc2)Oc2ncccc2S1(=O)=O (centres undefined)
A: 8.247
B: 3.313
C: 4.198

Compound: CN(Cc1ccc(Cl)s1)C(=O)CN(C)C1CCc2ccccc21 (centres undefined)
A: 15.79
B: 10.08
C: 1.444
D: -2.058

Compound: Cc1ccc(CC2CCCN2CC(=O)NCc2cccnc2)cc1 (centres undefined)
A: 0
B: 2.294
C: -3.122
D: -5.614

Compound: CN(C)c1cncc(C2CCCN2S(=O)(=O)c2cn(C)cn2)n1 (centres undefined)
A: -0.6897
B: -0.3708
C: -0.8205
D: 14.12

Compound: Cc1nc(-c2ccccc2)c(C(=O)N2CCC3(CC(=O)NC3=O)C2)s1 (centres undefined)
A: 15.09
B: 9.895
C: -2.437
D: 0.6595

Compound: Cn1cc(NC(=O)c2ccccn2)cc(Cl)c1=O
A: 10.26
B: -7.042
C: 10.11
D: 0.838

Compound: CCN1CCN(C(=O)NCc2cccc(-c3cnn(C)c3)c2)CC1
A: 4.839
B: 0.615
C: 2.842
D: -1.49

Compound: Cc1cnn(CCCNC(=O)NC2CCN(CC(F)(F)F)C2=O)c1 (centres undefined)
A: 10.99
B: -9.13
C: -1.164
D: 1.445

Compound: Cc1nc(CN2CCO[C@@H]3CN(C(=O)NC(C)C)CC[C@@H]3C2)cs1
A: 5.882
B: 3.732
C: 3.063
D: 2.397

Compound: Cc1cccc(N(CCC(N)=O)CC(=O)Nc2ccccc2)c1
A: 19.35
B: -4.423
C: 5.831
D: 0.5128

Compound: CC(C)Oc1ccccc1CNC(=O)N(C)C(C)CS(C)(=O)=O (centres undefined)
A: 24.44
B: 1.946
C: 3.855
D: 4.139

Compound: Cc1noc(C)c1-c1cncc(C2CCCN2Cc2cncnc2)n1 (centres undefined)
A: 6.569
B: -14.25
C: 2.8
D: 1.057